From PubChem BioAssay AID248 (DTP/NCI, 2004)
The list does not hold the whole screen: it gathers some chemical classes. Other doses and runs of a compound may be missing. T/C is the treated group as % of the vehicle group. Some entries give survivors of the animals treated and no T/C: the source holds a T/C of zero for them, seemingly a mark for toxic or unscored doses. Survivors were counted at the toxicity check, usually on the fifth day, unless a day is given; later deaths do not show. Schedules are NCI's codes, read here as Q, the interval in days (D) or hours (H), X, the number of doses. Where survival is the endpoint, the PubChem record calls one and a half times the control and up active, and a quarter to a half above the control has no call in these data; cut-offs in other NCI protocols can differ.

Test system: L1210 leukemia ip in BDF1 mice, survival T/C
Assay: NCI In Vivo Anticancer Drug Screen. Data for tumor model L1210 Leukemia (intraperitoneal) in B6D2F1 (BDF1) mice
Conditions: T/C endpoint: mean survival time, schedule: Q01DX001 (ip), vehicle: saline, higher T/C = longer survival

What does the source list for `CN(C)P(N)(Cl)(c1ccccc1)N(C)C`?
T/C (dose: 15.0 mg/kg/injection): 101 % of control; T/C (dose: 30.0 mg/kg/injection): 102 % of control; T/C (dose: 60.0 mg/kg/injection): 90 % of control; survivor count (dose: 100.0 mg/kg/injection): 1 of 6; survivor count (dose: 200.0 mg/kg/injection): 0 of 6; survivor count (dose: 400.0 mg/kg/injection): 0 of 6
